Data taken from publication PMC1977984 (British Journal of Cancer, 1992).

Assays:
Assay in all cases: cells
S1/1.1 cell line = details: Homo sapiens, 96 h, read-out: IC50 tamoxifen
Text: (§1) Br. J. Cancer (1992), 66, 833-839 ? […] Clinical effects and in vitro assessment in p-glycoprotein expressing cell lines N.S.A. Stuart', P. Philip', A.L. Harris', K. Tonkin', S. Houlbrook2, J. Kirk2, E.A. Lien3 & J. Carmichael' 'ICRF Clinical Oncology Unit, Churchill Hospital, Oxford OX3 7LJ; 2MRC Radiobiology Unit, Chilton, Didcot, Oxon; 3Department of Pharmacology and Toxicology, University of Bergen, Bergen, Norway. […] Cytotoxic drug resistance frequently affects a wide range of cytotoxic agents. It is commonly inherent, although it may also be acquired after initial response to cytotoxic drugs. Cell lines exposed in vitro to one cytotoxic drug may also become resistant to a range of structurally and functionally diverse agents. This multidrug resistant (MDR) phenotype is associ- ated with the presence of a 170 kd membrane glycoprotein, the P-glycoprotein (Pgp) (Juliano et al., 1976; Kartner et al., 1983; Riordan et al., 1985) which acts as an energy depen- dent efflux pump (Skovsgaard, 1978). […] Unfor- tunately many cause unacceptable toxicity at levels below those needed to modulate resistance and have therefore not been useful clinically (Ozols et al., 1987). Some encouraging results have however been reported in lymphoid malignan- cies. […] It is widely used in the treatment of breast cancer at doses of 20-40mgday-' and at such doses produces serum levels around 0.5 JiM (Adam et al., 1980; Fabian et al., 1980; Lien et al., 1989). […] Etoposide (VP16-213, Vepesid) is an epipodophyllotoxin derived cytotoxic drug which interferes with the action of the nuclear enzyme topoisomerase II producing lethal single and double stranded DNA breaks (Chen et al., 1984). It has activity in a number of solid tumours and resistance to it is part of the typical MDR phenotype (Endicott et al., 1989). […] The study therefore included patients with a range of relapsed and chemoresistant tumours. […] Patients had ECOG performance scores of 2 or better, had normal renal and hepatic function and had normal peripheral blood counts. […] Correspondence: N.S. Stuart. Received 13 March 1992; and in revised form 8 July 1992. 'PI Macmillan Press Ltd., 1992 Br. J. Cancer (1992), 66, 833-839 834 N.S.A. STUART et al. No formal compliance check was conducted but patients were asked specifically whether they had difficulties taking the correct number of tablets. Oral etoposide was given at a dose of 300mgday-' (150mg two times day-') for the first course. Patients who remained myelosuppressed on day 21 had the dose of etoposide reduced to 200 mg day-' for subse- quent courses. In those who had no significant myelosuppres- sion the dose of etoposide was increased to 400 mg day-'. […] Blood samples were centrifuged and the serum removed and stored at -20?C prior to measurement. […] The methods used have been published previously (Lien et al., 1989; 1987). […] The drugs were detected by being converted to fluorophors by subjecting the effluent of the column to ultra-violet light while passing through a quartz tube. The identity of the analyses was confirmed by liquid chromatography/mass spec- trometry using an on-line mass spectrometer connected to the analytical column (Lien et al., 1988). Serum levels in different patient populations were compared using the Mann-Whitney U-test. Cells and culture conditions Three pairs of cell lines were assessed. Each comprised a wild-type parental cell line and a P-glycoprotein expressing daughter line. […]

MCF-7 adrr cell line = details: Homo sapiens, MCF7, 96 h, read-out: IC50 tamoxifen
Text: as §1

S1 cell line (SW-1573) = details: Homo sapiens, SW1573, 96 h, read-out: IC50 tamoxifen
Text: as §1

CHO-KI adrr cell line = details: Cricetulus griseus, 96 h, read-out: IC50 tamoxifen
Text: as §1

MCF-7 wt cell line = details: Homo sapiens, MCF7, 96 h, read-out: IC50 tamoxifen
Text: as §1

Structure (SMILES): CC/C(=C(\c1ccccc1)c1ccc(OCCN(C)C)cc1)c1ccccc1 [tamoxifen]
- IC50 (S1/1.1 cell line): 12 µM
- IC50 (MCF-7 adrr cell line): 20 µM
- IC50 (S1 cell line (SW-1573)): 12 µM
- IC50 (CHO-KI adrr cell line): 7.8 µM
- IC50 (MCF-7 wt cell line): 8.3 µM
